Results from paper PMC7888682.
Like-named read-outs stand apart in the source and are kept apart here. Results are given in words; binding and its absence hold for the method and conditions named. In cells and extracts the contact can be indirect. Some entries that bind do so weakly or less than the wild type.

Sequences of proteins named here, by UniProt entry; tags and fusion partners are left off.
UniProt A2A432: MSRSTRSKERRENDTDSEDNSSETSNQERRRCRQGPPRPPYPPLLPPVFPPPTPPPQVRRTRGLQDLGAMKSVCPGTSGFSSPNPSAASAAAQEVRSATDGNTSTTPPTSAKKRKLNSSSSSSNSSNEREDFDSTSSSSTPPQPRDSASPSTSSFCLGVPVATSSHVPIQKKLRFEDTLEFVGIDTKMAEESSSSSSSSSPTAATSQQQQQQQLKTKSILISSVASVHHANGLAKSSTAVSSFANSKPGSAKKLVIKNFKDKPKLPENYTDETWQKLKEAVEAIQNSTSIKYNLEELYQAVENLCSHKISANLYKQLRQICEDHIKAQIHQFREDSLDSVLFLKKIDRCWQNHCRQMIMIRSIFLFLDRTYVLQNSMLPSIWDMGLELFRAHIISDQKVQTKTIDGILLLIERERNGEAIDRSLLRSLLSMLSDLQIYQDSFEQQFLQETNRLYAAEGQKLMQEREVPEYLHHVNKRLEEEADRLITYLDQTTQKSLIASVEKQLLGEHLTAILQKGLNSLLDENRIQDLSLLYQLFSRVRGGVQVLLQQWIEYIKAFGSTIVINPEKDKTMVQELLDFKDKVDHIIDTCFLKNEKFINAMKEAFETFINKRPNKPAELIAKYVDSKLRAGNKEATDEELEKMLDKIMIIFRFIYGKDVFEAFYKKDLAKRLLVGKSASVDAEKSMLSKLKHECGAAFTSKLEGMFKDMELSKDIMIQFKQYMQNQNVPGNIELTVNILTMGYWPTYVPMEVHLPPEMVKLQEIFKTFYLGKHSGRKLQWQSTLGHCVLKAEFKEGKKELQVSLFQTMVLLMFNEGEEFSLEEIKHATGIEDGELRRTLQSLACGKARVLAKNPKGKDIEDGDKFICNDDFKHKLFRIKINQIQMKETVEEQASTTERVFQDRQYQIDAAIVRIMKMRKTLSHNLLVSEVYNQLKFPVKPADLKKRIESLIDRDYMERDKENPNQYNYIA
UniProt Q80TR8: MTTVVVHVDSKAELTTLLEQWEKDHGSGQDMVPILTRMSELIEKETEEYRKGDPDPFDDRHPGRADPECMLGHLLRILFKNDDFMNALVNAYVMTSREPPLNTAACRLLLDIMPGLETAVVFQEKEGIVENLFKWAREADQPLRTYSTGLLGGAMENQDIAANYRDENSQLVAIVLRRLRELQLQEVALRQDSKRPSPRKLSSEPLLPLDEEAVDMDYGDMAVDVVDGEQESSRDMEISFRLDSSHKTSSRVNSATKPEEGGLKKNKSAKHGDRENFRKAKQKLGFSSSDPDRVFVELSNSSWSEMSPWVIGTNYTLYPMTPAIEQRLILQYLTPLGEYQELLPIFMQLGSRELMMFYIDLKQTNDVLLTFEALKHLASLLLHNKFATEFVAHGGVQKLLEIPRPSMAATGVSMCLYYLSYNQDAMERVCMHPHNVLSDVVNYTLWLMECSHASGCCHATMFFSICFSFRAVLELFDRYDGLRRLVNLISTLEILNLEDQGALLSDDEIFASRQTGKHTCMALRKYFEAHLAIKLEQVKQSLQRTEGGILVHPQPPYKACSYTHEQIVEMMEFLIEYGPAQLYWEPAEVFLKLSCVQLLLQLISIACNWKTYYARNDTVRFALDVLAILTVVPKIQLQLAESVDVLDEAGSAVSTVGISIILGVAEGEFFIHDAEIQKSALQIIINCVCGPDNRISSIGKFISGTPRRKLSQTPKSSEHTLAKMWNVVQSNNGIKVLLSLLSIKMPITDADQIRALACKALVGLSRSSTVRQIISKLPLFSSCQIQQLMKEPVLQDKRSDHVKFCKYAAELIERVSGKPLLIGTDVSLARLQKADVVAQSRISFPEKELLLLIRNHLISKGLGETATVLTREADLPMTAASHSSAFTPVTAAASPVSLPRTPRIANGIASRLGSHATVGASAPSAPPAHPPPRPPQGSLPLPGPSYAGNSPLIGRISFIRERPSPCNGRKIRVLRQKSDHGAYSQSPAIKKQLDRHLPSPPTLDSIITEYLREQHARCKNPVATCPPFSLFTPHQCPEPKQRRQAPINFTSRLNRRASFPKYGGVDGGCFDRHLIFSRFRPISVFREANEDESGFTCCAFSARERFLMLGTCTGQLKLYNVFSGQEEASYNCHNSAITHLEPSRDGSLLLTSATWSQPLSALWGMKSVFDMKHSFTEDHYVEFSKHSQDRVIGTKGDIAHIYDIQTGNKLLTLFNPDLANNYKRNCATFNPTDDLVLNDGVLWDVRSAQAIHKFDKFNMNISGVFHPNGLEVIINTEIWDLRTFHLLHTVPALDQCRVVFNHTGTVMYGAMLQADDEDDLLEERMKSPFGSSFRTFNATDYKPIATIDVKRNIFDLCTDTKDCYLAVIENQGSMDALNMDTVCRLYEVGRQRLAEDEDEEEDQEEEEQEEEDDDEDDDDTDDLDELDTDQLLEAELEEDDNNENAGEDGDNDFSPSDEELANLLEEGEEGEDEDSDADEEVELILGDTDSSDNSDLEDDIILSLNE

T1: SMC1A (mouse (endogenous in CD4+ T cells)) (UniProt Q9CU62)
T1 sequence: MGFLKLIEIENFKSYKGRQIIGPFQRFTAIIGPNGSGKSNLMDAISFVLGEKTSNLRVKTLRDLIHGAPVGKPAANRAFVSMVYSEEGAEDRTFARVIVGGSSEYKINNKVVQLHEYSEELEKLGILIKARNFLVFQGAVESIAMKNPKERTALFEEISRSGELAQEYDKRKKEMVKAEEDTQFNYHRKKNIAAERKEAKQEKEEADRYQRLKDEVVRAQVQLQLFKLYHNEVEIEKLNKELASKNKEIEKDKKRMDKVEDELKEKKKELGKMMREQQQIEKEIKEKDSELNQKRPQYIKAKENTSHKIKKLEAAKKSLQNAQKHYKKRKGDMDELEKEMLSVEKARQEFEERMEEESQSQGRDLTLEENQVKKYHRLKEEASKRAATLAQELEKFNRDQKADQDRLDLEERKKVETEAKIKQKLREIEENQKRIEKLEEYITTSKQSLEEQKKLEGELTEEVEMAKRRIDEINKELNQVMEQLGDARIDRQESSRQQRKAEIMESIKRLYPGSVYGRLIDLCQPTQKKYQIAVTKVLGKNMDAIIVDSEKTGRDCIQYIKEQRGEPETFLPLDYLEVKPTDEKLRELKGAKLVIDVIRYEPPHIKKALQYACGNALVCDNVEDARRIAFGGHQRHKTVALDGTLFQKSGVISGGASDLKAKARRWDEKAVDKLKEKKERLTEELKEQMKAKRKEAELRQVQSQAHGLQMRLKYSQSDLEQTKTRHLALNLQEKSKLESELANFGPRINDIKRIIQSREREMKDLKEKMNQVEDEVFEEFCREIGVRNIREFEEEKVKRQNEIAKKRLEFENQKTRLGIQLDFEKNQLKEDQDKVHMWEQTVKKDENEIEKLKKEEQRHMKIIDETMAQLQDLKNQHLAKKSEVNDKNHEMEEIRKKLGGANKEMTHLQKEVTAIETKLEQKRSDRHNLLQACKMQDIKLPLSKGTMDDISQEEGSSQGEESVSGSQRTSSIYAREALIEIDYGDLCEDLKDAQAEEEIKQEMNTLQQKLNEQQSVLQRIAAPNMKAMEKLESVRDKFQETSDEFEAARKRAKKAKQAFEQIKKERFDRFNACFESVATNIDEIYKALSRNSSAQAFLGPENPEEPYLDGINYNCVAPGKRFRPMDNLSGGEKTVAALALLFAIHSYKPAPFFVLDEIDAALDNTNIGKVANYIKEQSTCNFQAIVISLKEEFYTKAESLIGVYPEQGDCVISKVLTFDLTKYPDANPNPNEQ


Experiments:
Assay in all cases: co-IP; endogenous IP and western blot from TCR-stimulated mouse CD4+ T cells; 1% Triton-X, 50 mM Tris pH 8, 100 mM NaCl; 2 to 3 mg extract, Dynabeads with 5 to 8 ug antibody, overnight; lysates preincubated with DNase I (10 ug/ml)
[1] = target: Cullin-4b (mouse (endogenous in CD4+ T cells)) (UniProt A2A432)
[2] = target: T1, SMC1A (mouse (endogenous in CD4+ T cells))
[3] = target: Cullin-4b (mouse (endogenous in CD4+ T cells)) (UniProt A2A432); remark: listed apart in the source
[4] = target: Vprbp (DCAF1) (mouse (endogenous in CD4+ T cells)) (UniProt Q80TR8)

binding [1] | binding [2] | binding [3] | binding [4] | Molecule
binds | binds | – | – | Vprbp (DCAF1) (from UniProt Q80TR8 1-1506)
– | – | binds | binds | SMC1A (protein, UniProt Q9CU62 1-1233) MGFLKLIEIENFKSYKGRQIIGPFQRFTAIIGPNGSGKSNLMDAISFVLGEKTSNLRVKTLRDLIHGAPVGKPAANRAFVSMVYSEEGAEDRTFARVIVGGSSEYKINNKVVQLHEYSEELEKLGILIKARNFLVFQGAVESIAMKNPKERTALFEEISRSGELAQEYDKRKKEMVKAEEDTQFNYHRKKNIAAERKEAKQEKEEADRYQRLKDEVVRAQVQLQLFKLYHNEVEIEKLNKELASKNKEIEKDKKRMDKVEDELKEKKKELGKMMREQQQIEKEIKEKDSELNQKRPQYIKAKENTSHKIKKLEAAKKSLQNAQKHYKKRKGDMDELEKEMLSVEKARQEFEERMEEESQSQGRDLTLEENQVKKYHRLKEEASKRAATLAQELEKFNRDQKADQDRLDLEERKKVETEAKIKQKLREIEENQKRIEKLEEYITTSKQSLEEQKKLEGELTEEVEMAKRRIDEINKELNQVMEQLGDARIDRQESSRQQRKAEIMESIKRLYPGSVYGRLIDLCQPTQKKYQIAVTKVLGKNMDAIIVDSEKTGRDCIQYIKEQRGEPETFLPLDYLEVKPTDEKLRELKGAKLVIDVIRYEPPHIKKALQYACGNALVCDNVEDARRIAFGGHQRHKTVALDGTLFQKSGVISGGASDLKAKARRWDEKAVDKLKEKKERLTEELKEQMKAKRKEAELRQVQSQAHGLQMRLKYSQSDLEQTKTRHLALNLQEKSKLESELANFGPRINDIKRIIQSREREMKDLKEKMNQVEDEVFEEFCREIGVRNIREFEEEKVKRQNEIAKKRLEFENQKTRLGIQLDFEKNQLKEDQDKVHMWEQTVKKDENEIEKLKKEEQRHMKIIDETMAQLQDLKNQHLAKKSEVNDKNHEMEEIRKKLGGANKEMTHLQKEVTAIETKLEQKRSDRHNLLQACKMQDIKLPLSKGTMDDISQEEGSSQGEESVSGSQRTSSIYAREALIEIDYGDLCEDLKDAQAEEEIKQEMNTLQQKLNEQQSVLQRIAAPNMKAMEKLESVRDKFQETSDEFEAARKRAKKAKQAFEQIKKERFDRFNACFESVATNIDEIYKALSRNSSAQAFLGPENPEEPYLDGINYNCVAPGKRFRPMDNLSGGEKTVAALALLFAIHSYKPAPFFVLDEIDAALDNTNIGKVANYIKEQSTCNFQAIVISLKEEFYTKAESLIGVYPEQGDCVISKVLTFDLTKYPDANPNPNEQ
– | – | binds | binds | MRE11A (protein, UniProt Q61216 1-706) MSPTDPLDDEDTFKILVATDIHLGFMEKDAVRGNDTFVTFDEILRLALENEVDFILLGGDLFHENKPSRKTLHSCLELLRKYCMGDRPVQFEVISDQSVNFGFSKFPWVNYQDGNLNISIPVFSIHGNHDDPTGADALCALDVLSCAGFVNHFGRSMSVEKVDISPVLLQKGSTKLALYGLGSIPDERLYRMFVNKKVTMLRPKEDENSWFNLFVIHQNRSKHGNTNFIPEQFLDDFIDLVIWGHEHECKIGPIKNEQQLFYVSQPGSSVVTSLSPGEAVKKHVGLLRIKGRKMNMQKLPLRTVRRFFIEDVVLANHPNLFNPDNPKVTQAIQSFCLEKIEEMLDSAERERLGNPQQPGKPLIRLRVDYSGGFEPFNVLRFSQKFVDRVANPKDVIHFFRHREQKGKTGEEINFGMLITKPASEGATLRVEDLVKQYFQTAEKNVQLSLLTERGMGEAVQEFVDKEEKDAIEELVKYQLEKTQRFLKERHIDALEDKIDEEVRRFRESRQRNTNEEDDEVREAMSRARALRSQSETSTSAFSAEDLSFDTSEQTANDSDDSLSAVPSRGRGRGRGRRGARGQSSAPRGGSQRGRDTGLEITTRGRSSKATSSTSRNMSIIDAFRSTRQQPSRNVAPKNYSETIEVDDSDEDDIFPTNSRADQRWSGTTSSKRMSQSQTAKGVDFESDEDDDDDPFMSSSCPRRNRR
